At least one structure is not confirmed: it was looked up by name or label, or the drawing left a doubt.
System: Male mice of ddy-strain
Assay: Halothane anesthesia increasing activity
Type: in vivo, mouse
Conditions: compared with control (physiological saline solution)
Experimental: Male mice of ddy-strain having about 20 g body weight were used. One test group consists of 10 mice. An aqueous Gummi Arabicum suspension of test compound (80 mg of a compound to be tested and 1 g of Gummi Arabicum/100 ml of physiological NaCl solution) was administered orally to each mouse at the dosage of 32 mg of test compound/kg body. One hour after the administration, each mouse was placed in gas respiration chamber (13×13×24 cm) and oxygen gas containing 4% of Halothane [2-bromo-2-chloro-1,1,1-trifluoroethane] was blown into the chamber at the velocity of 2 l/min for 3 minutes. A mouse anaesthetized was taken out from the chamber and the time between the introduction of anesthesia to waking was measured by righting reflex as the index. To mice of control group, 1% Gummi Arabicum aqueous physiological solution was orally administered at the dosage of 0.1 ml/kg body. (Reference: M. J. Turnbull and J. W. Watkins: Br. J. Pharmacol., 58, 27-35 (1976))

Compound | Halothane anesthesia increasing activity / central nervous controlling effect in words
O=c1ccc2cccc(OCCCN3CCN(c4ccccc4)CC3)c2[nH]1 [F, 8-(4-Phenyl-1-piperazinylpropoxy)carbostyril] | different Halothane anesthesia increasing activity as compared with control
O=c1ccc2ccc(OCCCN3CCN(c4ccccc4)CC3)cc2[nH]1 [G, 7-(4-Phenyl-1-piperazinylpropoxy)carbostyril] | different Halothane anesthesia increasing activity as compared with control

Source: patent publication US4482560A, “Carbostyril derivatives, and antihistaminic agents containing the same” (priority 1979, dated 1984)
